These are yes or no findings as the source states them, for the method shown. Some results given as binding are weak or reduced against the parent protein; the word gives no strength.
Target: His-MATH (His-tagged MATH domain of human SPOP) (human) (UniProt O43791)
Experiment: peptide competition in the in vitro Pup modification assay: 1 µM PUP-IT^pep1 (competitor), 0.2 µM His-MATH, 8 µM Pup(E), free peptide 1-512 µM; anti-His immunoblot

By UniProt entry, the sequences of proteins in these tests, tags left out. Residues count along the entry.
UniProt O43791, residues 31-161: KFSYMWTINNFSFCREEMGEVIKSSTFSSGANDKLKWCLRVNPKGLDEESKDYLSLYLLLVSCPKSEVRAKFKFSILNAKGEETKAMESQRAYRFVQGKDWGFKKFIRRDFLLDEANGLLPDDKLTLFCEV

binding: binds
B1: Free pep1 peptide (peptide)
peptide: LACDEVTSTTSSSTA

Reference: patent publication US20210199665A1
